Results are given in words; binding and its absence hold for the method and conditions named. Binding seen in cells or lysates may run through a third protein. Some binding calls cover weakened binding; strength is not graded here.
B1: FOXM1 (forkhead box transcription M1) (protein, UniProt Q08050 1-763)
chain: MKTSPRRPLILKRRRLPLPVQNAPSETSEEEPKRSPAQQESNQAEASKEVAESNSCKFPAGIKIINHPTMPNTQVVAIPNNANIHSIITALTAKGKESGSSGPNKFILISCGGAPTQPPGLRPQTQTSYDAKRTEVTLETLGPKPAARDVNLPRPPGALCEQKRETCADGEAAGCTINNSLSNIQWLRKMSSDGLGSRSIKQEMEEKENCHLEQRQVKVEEPSRPSASWQNSVSERPPYSYMAMIQFAINSTERKRMTLKDIYTWIEDHFPYFKHIAKPGWKNSIRHNLSLHDMFVRETSANGKVSFWTIHPSANRYLTLDQVFKPLDPGSPQLPEHLESQQKRPNPELRRNMTIKTELPLGARRKMKPLLPRVSSYLVPIQFPVNQSLVLQPSVKVPLPLAASLMSSELARHSKRVRIAPKVLLAEEGIAPLSSAGPGKEEKLLFGEGFSPLLPVQTIKEEEIQPGEEMPHLARPIKVESPPLEEWPSPAPSFKEESSHSWEDSSQSPTPRPKKSYSGLRSPTRCVSEMLVIQHRERRERSRSRRKQHLLPPCVDEPELLFSEGPSTSRWAAELPFPADSSDPASQLSYSQEVGGPFKTPIKETLPISSTPSKSVLPRTPESWRLTPPAKVGGLDFSPVQTSQGASDPLPDPLGLMDLSTTPLQSAPPLESPQRLLSSEPLDLISVPFGNSSPSDIDVPKPGSPEPQVSGLAANRSLTEGLVLDTMNDSLSKILLDISFPGLDEDPLGPDNINWSQFIPELQ

By UniProt entry, the sequences of proteins in these tests, tags left out.
UniProt P35222: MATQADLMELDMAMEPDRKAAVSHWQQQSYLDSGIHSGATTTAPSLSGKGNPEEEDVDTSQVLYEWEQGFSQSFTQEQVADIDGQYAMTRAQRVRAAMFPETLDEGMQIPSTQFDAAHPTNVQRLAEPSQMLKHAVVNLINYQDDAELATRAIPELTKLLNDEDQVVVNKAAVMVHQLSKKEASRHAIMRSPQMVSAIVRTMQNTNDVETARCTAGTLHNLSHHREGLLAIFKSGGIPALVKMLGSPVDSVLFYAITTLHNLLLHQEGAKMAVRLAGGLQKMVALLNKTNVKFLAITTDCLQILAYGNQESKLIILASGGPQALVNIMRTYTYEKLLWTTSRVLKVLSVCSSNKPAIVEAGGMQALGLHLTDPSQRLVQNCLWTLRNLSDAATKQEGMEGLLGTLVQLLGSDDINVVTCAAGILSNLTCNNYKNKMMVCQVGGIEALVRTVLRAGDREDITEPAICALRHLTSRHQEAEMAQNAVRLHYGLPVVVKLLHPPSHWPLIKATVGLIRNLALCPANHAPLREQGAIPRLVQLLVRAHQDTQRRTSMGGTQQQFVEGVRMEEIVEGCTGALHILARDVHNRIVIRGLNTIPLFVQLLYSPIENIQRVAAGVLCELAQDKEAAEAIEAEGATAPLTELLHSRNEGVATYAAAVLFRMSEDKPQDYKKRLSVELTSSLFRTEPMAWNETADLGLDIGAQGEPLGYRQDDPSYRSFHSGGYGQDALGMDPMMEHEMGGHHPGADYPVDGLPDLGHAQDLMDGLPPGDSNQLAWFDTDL

Legend:
[1] = target: T1, FOXM1 (forkhead box transcription M1) (human (endogenous in A549 and HCC827)) (UniProt Q08050); experiment: co-IP; lysates of A549 and HCC827 cells (RIPA); immunoprecipitation with anti-FOXM1, anti-β-catenin or anti-IgG for 1 h at 37 °C, protein A-agarose overnight; bound proteins tested by western blot
T1 sequence: B1 chain

[2] = target: β-catenin (human (endogenous in A549 and HCC827)) (UniProt P35222); experiment: as above

Row | Molecule | binding [1] | binding [2]
1 | β-catenin (from UniProt P35222 1-781) | binds | –
2 | B1 | – | binds

— article PMC7280516
